Key:
C57BL/6J mice (HF mice) = experiment: treatment of insulin-resistant obese C57BL/6J mice (HF mice), glucose tolerance test; format: in vivo; conditions: HF diet obese mice, 12 days treatment
From the text: The objective of this experiment was to study the effect of systemic administration of human recombinant sCD14 (rhCD14) with respect to relevant insulin resistance parameters in experimental mice (C57BL/6J mice (HF mice).
Experiential animals: Male mice strains C57BL/6J (HF mice) C(he Jackson lab.). These animals had obesity.
Treatment of the mice with rhCD14: Male C57BL/6J mice were fed a HF diet (Harlan Teklad No. 88137: 21% by wt and 42% kcal from fat) for 26-28 weeks. The last 12 days, mice received a dose of 1 μg/g bw per day of hCD14 in two injections (0.5 μg/g each one) every 12 hours. The control group was treated with vehicle (saline serum) alone. Each group contained 9 mice.
Assay for Glucose Tolerance: As in Example 1.

C57BL/6J ob/ob mice = experiment: treatment of insulin-resistant diabetic C57BL/6J ob/ob mice, intraperitoneal glucose tolerance test; format: in vivo; conditions: 12 days treatment
From the text: The objective of this experiment was to study the effect of systemic administration of human recombinant sCD14 (rhCD14) with respect to relevant insulin resistance parameters in experimental mice (mice C57BL/6J ob/ob).
Experimental animals: Mice strains C57BL/6J ob/ob (The Jackson lab.). Males of 10 weeks old. These animals had obesity with hyperphagia, hyperinsulinemia (the presence of excess insulin in the blood), insulin resistance and moderate hyperglycemia (an excess of sugar in the blood).
Treatment of the mice with rhCD14: rhCD14 was continuously infused for 12 days by use of Alzet® pumps (pump 1002, 100 μl) implanted subcutaneously on the back of the animals. 20 mice were used. 10 with rhCD14 and 10 with saline serum (control). The dose was 1 μg/g weight of mice/day and it was administrated subcutaneously for 12 days.
Assay for glucose tolerance: Finalized the 12 days and after 16 hours of fasting, an intraperitoneal glucose tolerance test (GTT) was made. 2 g/kg of glucose (Glucosmon, 50%) were injected intraperitoneally. Blood samples were taken from the tail of the mice (20 μl) at 0, 15, 30, 60, 120 and 180 minutes after the glucose administration. The blood glucose levels were measured using a conventional glucometer (Menarini) and the insulin levels were meed by ELISA (Mercodia Ultrasensitive Mouse Insulin ELISA).

rhCD14: human recombinant soluble CD14 glycoprotein, binds bacterial lipopolysaccharide (LPS) (AELQQWLKPGLKVLSIAQAHSLNFSC; mammalian)
did not produce significant changes: ingestion of food, treated vs controls (C57BL/6J mice (HF mice)) | weight of the epidermal adipose tissue, treated vs controls (C57BL/6J mice (HF mice)) | weight of the soleus muscles, treated vs controls (C57BL/6J mice (HF mice)) | ingestion of food, treated vs controls (C57BL/6J ob/ob mice) | weight of the epidermal adipose tissue, treated vs controls (C57BL/6J ob/ob mice) | weight of the soleus muscles, treated vs controls (C57BL/6J ob/ob mice)

Source: patent publication US7655237B2, “Use of soluble CD14 for treatment of type 2 diabetes mellitus” (Bridge Bioresearch Limited, priority 2003, dated 2010)
